In this assay the target is UBC-1M3U(D157L,E158L,D161L)-Linker14-HA (Escherichia coli (strain ATCC 8739 / DSM 1576 / NBRC 3972 / NCIMB 8545 / WDCM 00012 / Crooks)) (UniProt B1IQK6). Put plainly: self-assembly in cultured mouse hippocampal neurons; anti-HA immunofluorescence, confocal.

No constants are given. Whether binding was seen depends on the method and setting. Some entries that bind do so weakly or less than the wild type. Where a sequence is shown, tags or fusion partners need not be part of it.

B1: UBC-1M3U(D157L,E158L,D161L)-Linker14-HA (protein)
chain: MKPTTISLLQKYKQEKKRFATITAYDYSFAKLFADEGLNVMLVGDSLGMTVQGHDSTLPVTVADIAYHTAAVRRGAPNCLLLADLPFMAYATPEQAFENAATVMRAGANMVKIEGGEWLVETVQMLTERAVPVCGHLGLTPQSVNIFGGYKVQGRGLLAGLQLLSDALALEAAGAQLLVLECVPVELAKRITEALAIPVIGIGAGNVTDGQILVMHDAFGITGGHIPKFAKNFLAETGDIRAAVRQYMAEVESGVYPGEEHSFHGGSGGTGGSGGTGYPYDVPDYA
With B1, the binding result was “binds”.

(Values after patent US20230250139A1 (MIT, published 2023).)
